Assay [1] has as its target GST-USP5 (UniProt P45974). Kind of assay: pull-down; purified GST-tagged protein immobilised on glutathione beads and incubated with recombinant or purified protein; immunoblotting; both purified. On the technique in general: Immunoblotting shows a protein as a band on a membrane.
The target of assay [2] is T1, GST-USP13 (UniProt Q92995).
T1 sequence: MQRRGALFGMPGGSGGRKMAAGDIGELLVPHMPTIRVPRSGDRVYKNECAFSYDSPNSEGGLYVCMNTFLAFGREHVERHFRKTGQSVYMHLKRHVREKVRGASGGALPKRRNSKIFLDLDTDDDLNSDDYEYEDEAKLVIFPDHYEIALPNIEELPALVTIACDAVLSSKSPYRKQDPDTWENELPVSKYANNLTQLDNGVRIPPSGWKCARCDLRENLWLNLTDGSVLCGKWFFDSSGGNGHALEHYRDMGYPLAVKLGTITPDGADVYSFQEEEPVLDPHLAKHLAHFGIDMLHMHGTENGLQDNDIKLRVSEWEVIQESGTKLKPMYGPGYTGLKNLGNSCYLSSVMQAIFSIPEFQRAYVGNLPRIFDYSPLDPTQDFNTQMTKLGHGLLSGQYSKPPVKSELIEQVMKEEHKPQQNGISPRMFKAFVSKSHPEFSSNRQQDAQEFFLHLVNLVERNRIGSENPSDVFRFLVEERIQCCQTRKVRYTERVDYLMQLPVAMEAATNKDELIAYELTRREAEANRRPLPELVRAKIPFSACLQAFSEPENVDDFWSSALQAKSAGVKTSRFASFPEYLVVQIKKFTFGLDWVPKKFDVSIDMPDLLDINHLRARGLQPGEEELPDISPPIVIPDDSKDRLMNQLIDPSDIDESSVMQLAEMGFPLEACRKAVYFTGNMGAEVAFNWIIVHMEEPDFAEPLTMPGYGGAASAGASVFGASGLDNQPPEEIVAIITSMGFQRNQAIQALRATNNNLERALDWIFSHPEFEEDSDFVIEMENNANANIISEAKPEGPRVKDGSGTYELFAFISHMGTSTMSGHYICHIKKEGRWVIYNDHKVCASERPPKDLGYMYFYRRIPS
The experiment in a line: pull-down; glutathione beads with purified GST-tagged protein incubated with whole cell extracts (control, gp78-expressing, gp78 knock-down or knock-out cells; depletion of gp78 reduced the USP13-p97 interaction threefold to fourfold and did not affect USP13-Bag6); immunoblotting; only the target purified.

By UniProt entry, the sequences of proteins in these tests, tags left out.
UniProt P45974: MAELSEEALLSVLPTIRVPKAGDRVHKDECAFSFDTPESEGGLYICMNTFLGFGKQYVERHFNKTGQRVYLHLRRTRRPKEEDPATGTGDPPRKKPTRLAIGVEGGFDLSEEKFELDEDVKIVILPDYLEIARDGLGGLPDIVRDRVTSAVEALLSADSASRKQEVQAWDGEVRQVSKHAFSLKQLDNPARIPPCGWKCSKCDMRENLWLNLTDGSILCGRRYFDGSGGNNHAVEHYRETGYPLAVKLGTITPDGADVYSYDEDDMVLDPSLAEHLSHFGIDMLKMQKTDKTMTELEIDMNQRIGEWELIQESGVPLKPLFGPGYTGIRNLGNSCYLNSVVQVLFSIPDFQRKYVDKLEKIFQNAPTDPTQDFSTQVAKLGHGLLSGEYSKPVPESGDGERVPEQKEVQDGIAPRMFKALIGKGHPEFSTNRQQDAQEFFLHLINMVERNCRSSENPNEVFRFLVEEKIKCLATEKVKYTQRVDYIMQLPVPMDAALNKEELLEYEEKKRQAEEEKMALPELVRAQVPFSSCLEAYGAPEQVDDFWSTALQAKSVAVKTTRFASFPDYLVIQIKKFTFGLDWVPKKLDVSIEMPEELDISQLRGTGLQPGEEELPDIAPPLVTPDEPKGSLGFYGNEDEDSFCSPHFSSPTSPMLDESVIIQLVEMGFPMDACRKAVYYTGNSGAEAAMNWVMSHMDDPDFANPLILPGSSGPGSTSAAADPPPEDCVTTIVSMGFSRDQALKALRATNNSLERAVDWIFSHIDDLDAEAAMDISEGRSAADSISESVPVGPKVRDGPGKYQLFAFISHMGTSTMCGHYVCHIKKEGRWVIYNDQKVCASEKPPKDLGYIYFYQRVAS
UniProt P25786: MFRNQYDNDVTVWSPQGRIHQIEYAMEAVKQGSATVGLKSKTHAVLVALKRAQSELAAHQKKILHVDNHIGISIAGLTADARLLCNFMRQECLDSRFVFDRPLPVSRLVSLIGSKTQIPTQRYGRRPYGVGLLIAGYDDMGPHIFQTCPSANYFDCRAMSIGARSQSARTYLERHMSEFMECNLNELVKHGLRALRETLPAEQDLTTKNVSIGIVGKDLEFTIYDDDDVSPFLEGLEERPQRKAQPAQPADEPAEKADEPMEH

These are yes or no findings as the source states them, for the method shown. For some assays here: Binding seen in cells or lysates may run through a third protein. Some entries that bind do so weakly or less than the wild type. For some assays here: Sequences can lack the tags named with a protein.

In the case of “recombinant p97 (from UniProt P55072 1-806) (enzyme)”, the binding result in assay [1] is “no binding”.

For α6 (from UniProt P25786 1-263), the binding entry in assay [2] is on record as “binds”.

The record behind these values is PMC3889402.
